Experimental data from paper PMC5772059.
These are yes or no findings as the source states them, for the method shown. Binding calls can cover weak binding; strength is not graded here.

The chains behind the UniProt entries cited, without tags or fusion partners. Where a name states a change or a piece, a line headed by the entry shows the natural chain unless it says otherwise.
UniProt Q13642: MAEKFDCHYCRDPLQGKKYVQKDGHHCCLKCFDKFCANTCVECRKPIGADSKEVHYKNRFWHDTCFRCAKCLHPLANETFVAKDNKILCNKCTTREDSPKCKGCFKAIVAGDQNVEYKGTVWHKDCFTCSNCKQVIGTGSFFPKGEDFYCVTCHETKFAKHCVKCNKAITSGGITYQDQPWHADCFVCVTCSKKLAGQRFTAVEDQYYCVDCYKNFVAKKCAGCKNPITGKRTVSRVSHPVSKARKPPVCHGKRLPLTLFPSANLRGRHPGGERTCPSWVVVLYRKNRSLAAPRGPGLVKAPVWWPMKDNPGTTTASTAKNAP

Target: FHL-1 protein (Abnova) (UniProt Q13642)
Test: pull-down; GST pull-down: purified protein incubated with a GST-fusion protein immobilised on glutathione sepharose beads, 4 °C, 1.5 h; washes in high and low salt buffer; SDS-PAGE and western blot; both purified

B1: recombinant human full-length PP5 (enzyme, UniProt P53041 1-499)
chain: MAMAEGERTECAEPPRDEPPADGALKRAEELKTQANDYFKAKDYENAIKFYSQAIELNPSNAIYYGNRSLAYLRTECYGYALGDATRAIELDKKYIKGYYRRAASNMALGKFRAALRDYETVVKVKPHDKDAKMKYQECNKIVKQKAFERAIAGDEHKRSVVDSLDIESMTIEDEYSGPKLEDGKVTISFMKELMQWYKDQKKLHRKCAYQILVQVKEVLSKLSTLVETTLKETEKITVCGDTHGQFYDLLNIFELNGLPSETNPYIFNGDFVDRGSFSVEVILTLFGFKLLYPDHFHLLRGNHETDNMNQIYGFEGEVKAKYTAQMYELFSEVFEWLPLAQCINGKVLIMHGGLFSEDGVTLDDIRKIERNRQPPDSGPMCDLLWSDPQPQNGRSISKRGVSCQFGPDVTKAFLEENNLDYIIRSHEVKAEGYEVAHGGRCVTVFSAPNYCDQMGNKASYIHLQGSDLRPQFHQFTAVPHPNVKPMAYANTLLQLGMM
  binding: binds
